Twelve compounds from PubChem BioAssay AID330 (DTP/NCI, 2004) can be followed below.

Each structure is given as a SMILES string. The list is a part of this screen's results and no random one: it gathers tests that were run many times, whatever their T/C, doses with no T/C, and many T/C values between a quarter and a half above the control. Other doses and runs of a compound stand elsewhere. T/C: endpoint of the treated group in % of that of the vehicle group. Some doses have a count of surviving animals in place of a T/C: the source files T/C as zero there, which appears to mark a toxic dose or a test without result, not a measured value. Some survivor counts are full or nearly so, which does not show that the dose was tolerated: survival well below the control is almost never listed, so the zero probably covers shortened survival too. Survivors were counted at the toxicity check, usually on the fifth day, unless a day is given; later deaths do not show. Schedule codes are those of the source, taken here to give the interval after Q, in days (D) or hours (H), and the number of doses after X. For survival time, the PubChem record calls one and a half times the control and up active, and a quarter to a half above the control has no call in these data; cut-offs in other NCI protocols can differ. Some T/C values carry the count of animals alive at the toxicity check (mostly the fifth day); without a count, all were alive then.

For the experiment, the system named is P388 leukemia ip, CD2F1 mice, survival T/C. The experiment can be described thus: NCI In Vivo Anticancer Drug Screen. Data for tumor model P388 Leukemia (intraperitoneal) in CD2F1 (CDF1) mice. Particulars: T/C endpoint: median survival time, higher T/C = longer survival.
Where [1] appears, read: dose: 400.0 mg/kg/injection, schedule: Q04DX003 (ip), vehicle: Klucel (hydroxypropylcellulose) (HPC).
[2] abbreviates: dose: 50.0 mg/kg/injection, schedule: Q01DX009 (ip), vehicle: saline.
The mark [3] stands for this setting: dose: 400.0 mg/kg/injection, schedule: Q01DX009 (ip), vehicle: saline with Tween-80.

Consider `CCC/C(=N/NC(N)=O)C(OC)OC`, for which the survivor count (dose: 150.0 mg/kg/injection, schedule: Q01DX009 (ip), vehicle: saline) is given as 6 of 6.
In the case of `Cc1cc(NC(=O)c2ccc(N=Nc3cc(S(=O)(=O)O)c4ccccc4c3O)cc2)ccc1N=Nc1ccc2cc(S(=O)(=O)O)cc(S(=O)(=O)O)c2c1`, the T/C (dose: 50.0 mg/kg/injection, schedule: Q01DX005 (ip), vehicle: saline with Tween-80) was 125 % of control.
`O=c1c2ccccc2nnn1O`: the survivor count under setting [1] is reported as 0 of 6.
For the compound `ClCC(Br)CBr` (configuration not stated) (tested in a mixture with another compound), under setting [2], the survivor count was 2 of 6.
For `CCCCCC(=O)NC1C(O)OC(CO)C(O)C1O` (configuration not stated), the survivor count (dose: 200.0 mg/kg/injection, schedule: Q01DX005 (ip), vehicle: Klucel (hydroxypropylcellulose) (HPC)) is recorded as 2 of 5.
In the case of `CNc1ccc2c(c1)C(=O)c1c(C)n(C)c3cccc-2c13`, the survivor count (dose: 100.0 mg/kg/injection, schedule: Q01DX005 (ip), vehicle: saline with Tween-80) was 6 of 6 and the survivor count (dose: 200.0 mg/kg/injection, schedule: Q01DX005 (ip), vehicle: saline with Tween-80) is reported as 6 of 6.
Take `OCC1OC(n2cnc3c(NCc4ccco4)ncnc32)C(O)C1O` (configuration not stated): the survivor count under setting [3] was 2 of 6.
Turning to `O=C(c1ccccc1)C(O)O`, the survivor count is recorded as 5 of 6 (dose: 200.0 mg/kg/injection, schedule: Q04DX003 (ip), vehicle: saline with Tween-80) and 1 of 6 (dose: 400.0 mg/kg/injection, schedule: Q04DX003 (ip), vehicle: saline with Tween-80).
For the compound `Nc1ncnc2c(C3OC(CO)C(O)C3O)[nH]nc12` (configuration not stated), the T/C runs as follows: (dose: 8.0 mg/kg/injection, schedule: Q01DX009 (ip), vehicle: saline sonified) 130 % of control; (dose: 12.5 mg/kg/injection, schedule: Q01DX009 (ip), vehicle: saline sonified) 136 % of control [5 of 6 alive]. For the same compound, the survivor count (dose: 18.0 mg/kg/injection, schedule: Q01DX009 (ip), vehicle: saline sonified) was 5 of 6 and the survivor count (dose: 25.0 mg/kg/injection, schedule: Q01DX009 (ip), vehicle: saline sonified) is recorded as 5 of 6.
With `Oc1ccccc1C=Nc1cccnc1`, the survivor count is on record as 4 of 6 (dose: 50.0 mg/kg/injection, schedule: Q01DX009 (ip), vehicle: saline with Tween-80); 1 of 6 (dose: 100.0 mg/kg/injection, schedule: Q01DX009 (ip), vehicle: saline with Tween-80); 0 of 6 (dose: 200.0 mg/kg/injection, schedule: Q01DX009 (ip), vehicle: saline with Tween-80); 0 of 6 under setting [3].
Turning to `COC(=O)OC(C#N)c1cccc([N+](=O)[O-])c1` (configuration not stated), the survivor count is, setting by setting: under setting [2], 6 of 6; (dose: 200.0 mg/kg/injection, schedule: Q01DX009 (ip), vehicle: saline) 4 of 6.
Regarding `O=C1CCCC2=C1C(c1ccccc1)/C(=N/O)O2` (configuration not stated), the survivor count was 6 of 6 (dose: 100.0 mg/kg/injection, schedule: Q04DX003 (ip), vehicle: Klucel (hydroxypropylcellulose) (HPC)) and 6 of 6 under setting [1].
